Measured values as given in the supplement of paper PMC8728848.
The list shows a part of the results.

Key:
Experiment in all cases: glycan array binding signal (z-score within array); higher = stronger binding
Details in all cases: glycan notation: IUPAC condensed, linker removed
[1] = biological target: Fuc(a1-2)Gal(b1-4)GlcNAc(b1-3)Gal(b1-4)GlcNAc(b1-2)Man(a1-3)[Fuc(a1-2)Gal(b1-4)GlcNAc(b1-3)Gal(b1-4)GlcNAc(b1-2)Man(a1-6)]Man(b1-4)GlcNAc(b1-4)GlcNAc
Outline: (§1)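 The binding signal is a Z-score computed within each array and averaged over linkers. Arrays of the same protein sequence at different concentrations or buffers were also averaged together. Data originate from 3228 arrays in the Consortium for Functional Glycomics database, kept only where the protein sequence was available.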

[2] = biological target: Fuc(a1-2)Gal(b1-4)GlcNAc(b1-3)Gal(b1-4)GlcNAc(b1-3)Gal(b1-4)GlcNAc
Outline: as §1

[3] = biological target: Fuc(a1-2)Gal(b1-4)GlcNAc(b1-3)GalNAc
Outline: as §1

[4] = biological target: Fuc(a1-2)Gal(b1-4)GlcNAc(b1-3)[Fuc(a1-2)Gal(b1-4)GlcNAc(b1-6)]GalNAc
Outline: as §1

[5] = biological target: Fuc(a1-2)Gal(b1-4)GlcNAc(b1-3)[Fuc(a1-3)[Gal(b1-4)]GlcNAc(b1-6)]Gal(b1-4)Glc
Outline: as §1

[6] = biological target: Fuc(a1-2)Gal(b1-4)GlcNAc(b1-6)GalNAc
Outline: as §1

[7] = biological target: Fuc(a1-2)Gal(b1-4)GlcNAc6S
Outline: as §1

[8] = biological target: Fuc(a1-2)Gal(b1-4)[Fuc(a1-3)]GlcNAc
Outline: as §1

[9] = biological target: Fuc(a1-2)Gal(b1-4)[Fuc(a1-3)]GlcNAc(b1-2)Man(a1-3)[Fuc(a1-2)Gal(b1-4)[Fuc(a1-3)]GlcNAc(b1-2)Man(a1-6)]Man(b1-4)GlcNAc(b1-4)[Fuc(a1-6)]GlcNAc
Outline: as §1

[10] = biological target: Fuc(a1-2)Gal(b1-4)[Fuc(a1-3)]GlcNAc(b1-2)[Fuc(a1-2)Gal(b1-4)[Fuc(a1-3)]GlcNAc(b1-4)]Man(a1-3)[Fuc(a1-2)Gal(b1-4)[Fuc(a1-3)]GlcNAc(b1-2)Man(a1-6)]Man(b1-4)GlcNAc(b1-4)GlcNAc
Outline: as §1

[11] = biological target: Fuc(a1-2)Gal(b1-4)[Fuc(a1-3)]GlcNAc(b1-3)Gal(b1-4)[Fuc(a1-3)]GlcNAc
Outline: as §1

[12] = biological target: Fuc(a1-2)Gal(b1-4)[Fuc(a1-3)]GlcNAc(b1-3)Gal(b1-4)[Fuc(a1-3)]GlcNAc(b1-3)Gal(b1-4)[Fuc(a1-3)]GlcNAc
Outline: as §1

[13] = biological target: Fuc(a1-2)Gal(b1-4)[Fuc(a1-3)]GlcNAc(b1-3)GalNAc
Outline: as §1

[14] = biological target: Fuc(a1-2)Gal(b1-4)[Fuc(a1-3)]GlcNAc(b1-3)[Neu5Ac(a2-6)Gal(b1-4)GlcNAc(b1-6)]Gal(b1-4)Glc
Outline: as §1

[15] = biological target: Fuc(a1-2)Gal3S(b1-4)GlcNAc
Outline: as §1

[16] = biological target: Fuc(a1-2)Gal6S(b1-3)GlcNAc
Outline: as §1

[17] = biological target: Fuc(a1-2)Gal6S(b1-3)GlcNAc6S
Outline: as §1

Fuc(a1-2)Gal6S(b1-4)Glc = biological target: Fuc(a1-2)Gal6S(b1-4)Glc
Outline: as §1

[18] = biological target: Fuc(a1-2)Gal6S(b1-4)Glc6S
Outline: as §1

Fuc(a1-2)[Gal(a1-3)]Gal = biological target: Fuc(a1-2)[Gal(a1-3)]Gal
Outline: as §1

[19] = biological target: Fuc(a1-2)[Gal(a1-3)]Gal(b1-3)GalNAc
Outline: as §1

[20] = biological target: Fuc(a1-2)[Gal(a1-3)]Gal(b1-3)GalNAc(b1-3)Gal(a1-4)Gal(b1-4)Glc
Outline: as §1

[21] = biological target: Fuc(a1-2)[Gal(a1-3)]Gal(b1-3)GlcNAc
Outline: as §1

[22] = biological target: Fuc(a1-2)[Gal(a1-3)]Gal(b1-3)GlcNAc(b1-2)Man(a1-3)[Fuc(a1-2)[Gal(a1-3)]Gal(b1-3)GlcNAc(b1-2)Man(a1-6)]Man(b1-4)GlcNAc(b1-4)GlcNAc
Outline: as §1

[23] = biological target: Fuc(a1-2)[Gal(a1-3)]Gal(b1-3)GlcNAc(b1-2)Man(a1-3)[Fuc(a1-2)[Gal(a1-3)]Gal(b1-3)GlcNAc(b1-2)Man(a1-6)]Man(b1-4)GlcNAc(b1-4)[Fuc(a1-6)]GlcNAc
Outline: as §1

[24] = biological target: Fuc(a1-2)[Gal(a1-3)]Gal(b1-3)GlcNAc(b1-3)GalNAc
Outline: as §1

[25] = biological target: Fuc(a1-2)[Gal(a1-3)]Gal(b1-3)GlcNAc(b1-6)GalNAc
Outline: as §1

[26] = biological target: Fuc(a1-2)[Gal(a1-3)]Gal(b1-4)Glc
Outline: as §1

[27] = biological target: Fuc(a1-2)[Gal(a1-3)]Gal(b1-4)GlcNAc
Outline: as §1

[28] = biological target: Fuc(a1-2)[Gal(a1-3)]Gal(b1-4)GlcNAc(b1-2)Man
Outline: as §1

B1: FGF1 (Homo sapiens), P05230 (protein)
chain: MAEGEITTFTALTEKFNLPPGNYKKPKLLYSNGGHFLRILPDGTVDGTRDRSDQHIQLQLSAESVGEVYIKSTETGQYLAMTDGLLYGSQTPNEECLFLERLEENHYNTYISKHAEKNWFVGLKKNGSCKRGPRTHYGQAILFLPLPASSED
glycan array binding signal (z-score) [1]: 0.234
glycan array binding signal (z-score) [2]: 0.099
glycan array binding signal (z-score) [3]: 1.33
glycan array binding signal (z-score) [4]: 1.34
glycan array binding signal (z-score) [5]: -0.372
glycan array binding signal (z-score) [6]: 0.959
glycan array binding signal (z-score) [7]: 0.936
glycan array binding signal (z-score) [8]: -0.25
glycan array binding signal (z-score) [9]: 0.112
glycan array binding signal (z-score) [10]: 0.987
glycan array binding signal (z-score) [11]: -0.549
glycan array binding signal (z-score) [12]: -0.413
glycan array binding signal (z-score) [13]: 1.94
glycan array binding signal (z-score) [14]: -0.764
glycan array binding signal (z-score) [15]: -0.858
glycan array binding signal (z-score) [16]: 0.087
glycan array binding signal (z-score) [17]: 2.68
glycan array binding signal (z-score) (Fuc(a1-2)Gal6S(b1-4)Glc): 0.397
glycan array binding signal (z-score) [18]: 0.797
glycan array binding signal (z-score) (Fuc(a1-2)[Gal(a1-3)]Gal): -0.484
glycan array binding signal (z-score) [19]: 0.883
glycan array binding signal (z-score) [20]: -1.07
glycan array binding signal (z-score) [21]: 0.921
glycan array binding signal (z-score) [22]: -0.245
glycan array binding signal (z-score) [23]: 0.921
glycan array binding signal (z-score) [24]: -0.256
glycan array binding signal (z-score) [25]: -0.314
glycan array binding signal (z-score) [26]: -0.11
glycan array binding signal (z-score) [27]: -0.843
glycan array binding signal (z-score) [28]: -0.098
